From patent US20060189539A1 (priority 1994, published 2006)

Assay: general procedure: Boc solid-phase peptide synthesis; BHA resin; DIC/HOBt (carbodiimide); BOP reagent for bulky amino acids; symmetric anhydride
Details: whole synthesis; for crude purity (method not given): scale of the general procedure 0.5 mmol

Substance | crude purity (method not given) | isolated mass (scale 0.5 mmol) [mg]
Lys^4[Lys(ε-Fmoc)]^8-GnRH-III | 80% | –
Lys^5[Lys(ε-Fmoc)]^8-GnRH-III | about 80% | –
Lys^5,D-Trp^6-hGnRH | – | 52
